For part of these data: HELM strings list residues between dots; [ac] is acetyl, [am] amide, other brackets name non-standard units.
Experiments:
hCMEC/D3 cells = assay: BBB permeability study, TEER measurement of barrier integrity; format: in vitro ADME, human; conditions: hCMEC/D3 monolayer on 0.4 μm insert, 40 μM in HBSS apical, 37 °C, 100 rpm; variance vs start; mean ± SD, n = 3
[1] = general procedure: Fmoc solid-phase peptide synthesis; Rink Amide; HBTU/DIEA; conditions: whole synthesis, scale 0.2 mmol

With `CC(C)C[C@H](NC(=O)[C@H](C)NC(=O)[C@H](CCCCN)NC(=O)[C@H](CC(C)C)NC(=O)[C@H](C)NC(=O)[C@H](CC(C)C)NC(=O)[C@H](CCCCN)NC(=O)[C@H](CC(C)C)NC(=O)[C@H](C)NC(=O)[C@H](CC(C)C)NC(=O)[C@H](CCCCN)NC(=O)[C@@H](N)Cc1cn(CC(=O)Nc2c3c(nc4ccccc24)CCCC3)nn1)C(=O)N[C@@H](CCCCN)C(=O)N[C@@H](C)C(=O)N[C@@H](C)C(=O)N[C@@H](CC(C)C)C(=O)N[C@@H](CCCCN)C(=O)N[C@@H](CC(C)C)C(=O)N[C@@H](C)C(N)=O` [MAP-Tacrine conjugate] as the compound, how does the “ΔTEER at t=0 min” value (hCMEC/D3 cells) read?
The value was 0 ± 21 Ω/cm^2.

And the “ΔTEER at t=240 min” value (hCMEC/D3 cells)?
The value was -29 ± 33 Ω/cm^2.

For `Nc1c2c(nc3ccccc13)CCCC2` [Tacrine, reference compound], which “ΔTEER at t=0 min” value (hCMEC/D3 cells) is on record?
Its value is 0 ± 27 Ω/cm^2.

What about the “ΔTEER at t=240 min” value (hCMEC/D3 cells) of the same compound?
Its value is -36 ± 27 Ω/cm^2.

What does the source list for “PEPTIDE1{K.L.A.L.K.L.A.L.K.A.L.K.A.A.L.K.L.A.[am]}$$$$V2.0”?
final HPLC purity ([1]; 220 nm): 100%; isolated mass [1]: 16.0 mg
